Results taken from PMC10449921.
No constants are given. Whether binding was seen depends on the method and setting. Binding seen in cells or lysates may run through a third protein. Some binding calls cover weakened binding; strength is not graded here.

Sequences of proteins named here, by UniProt entry; tags and fusion partners are left off. A change or cut given only in a name is not applied to a line headed by its entry.
UniProt P06493: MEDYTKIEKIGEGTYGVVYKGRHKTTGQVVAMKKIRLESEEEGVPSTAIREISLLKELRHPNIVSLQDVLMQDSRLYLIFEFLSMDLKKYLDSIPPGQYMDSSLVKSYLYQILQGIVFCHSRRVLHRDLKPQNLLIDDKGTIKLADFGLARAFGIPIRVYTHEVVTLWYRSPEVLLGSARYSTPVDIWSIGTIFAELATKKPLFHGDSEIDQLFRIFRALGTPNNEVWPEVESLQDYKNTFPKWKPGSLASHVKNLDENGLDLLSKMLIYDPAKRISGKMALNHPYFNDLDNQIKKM
UniProt P50613: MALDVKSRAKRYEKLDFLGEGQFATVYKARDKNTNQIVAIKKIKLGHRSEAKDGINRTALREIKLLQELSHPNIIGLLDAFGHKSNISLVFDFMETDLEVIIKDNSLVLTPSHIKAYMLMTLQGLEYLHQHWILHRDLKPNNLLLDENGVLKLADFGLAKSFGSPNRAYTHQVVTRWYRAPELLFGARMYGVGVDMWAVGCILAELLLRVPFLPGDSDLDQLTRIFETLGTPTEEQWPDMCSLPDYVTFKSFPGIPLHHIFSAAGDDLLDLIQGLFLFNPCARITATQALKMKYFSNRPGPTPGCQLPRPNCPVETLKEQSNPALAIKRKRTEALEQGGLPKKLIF

Molecular target: CDK1 (human (endogenous in PC9 and H358)) (UniProt P06493)
Test: co-IP; endogenous proteins from lysates of LUAD cells (PC9, H358), with or without LINC00880 overexpression; Pierce Classic Magnetic IP/Co-IP Kit, western blotting

binding: binds
Substance: CDK-activating kinases (CAKs), including CDK7, MNAT1, and cyclin H (from UniProt P50613 1-346; P51948 1-309; P51946 1-323) (complex)
